Measured values reported in PMC9114114.
Results are given in words; binding and its absence hold for the method and conditions named. In cells and extracts the contact can be indirect. Some entries that bind do so weakly or less than the wild type.

The chains behind the UniProt entries cited, without tags or fusion partners.
UniProt P12956: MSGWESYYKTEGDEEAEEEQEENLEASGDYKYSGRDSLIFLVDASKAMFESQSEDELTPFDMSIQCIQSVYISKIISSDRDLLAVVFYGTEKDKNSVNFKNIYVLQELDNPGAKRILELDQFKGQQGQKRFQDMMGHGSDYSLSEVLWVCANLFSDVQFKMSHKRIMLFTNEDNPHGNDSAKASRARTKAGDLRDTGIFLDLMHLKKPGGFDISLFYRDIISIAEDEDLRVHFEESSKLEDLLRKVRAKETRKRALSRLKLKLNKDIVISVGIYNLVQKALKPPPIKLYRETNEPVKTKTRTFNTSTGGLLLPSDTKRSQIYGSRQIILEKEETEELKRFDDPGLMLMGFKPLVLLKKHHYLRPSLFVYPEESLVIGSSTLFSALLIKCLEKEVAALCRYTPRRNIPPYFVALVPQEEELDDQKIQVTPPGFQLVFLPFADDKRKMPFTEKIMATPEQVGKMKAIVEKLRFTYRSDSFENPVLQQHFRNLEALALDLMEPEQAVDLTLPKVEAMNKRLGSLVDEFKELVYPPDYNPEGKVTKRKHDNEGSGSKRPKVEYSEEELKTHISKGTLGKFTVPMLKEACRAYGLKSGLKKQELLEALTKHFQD

Target: FLAG-tagged Ku70 (human) (UniProt P12956)
Test: co-IP; HEK293T, co-transfected; RIPA lysate, 1 mg protein, anti-FLAG M2 affinity gel; blots with anti-ATG5 and anti-FLAG; cells with vehicle, etoposide, doxorubicin or cisplatin

- binding: binds
B1: truncated ATG5 (1-192 a.a. of the human ATG5, lack of ATG5 C-terminal domain) (domain or fragment, UniProt Q9H1Y0 1-192)
chain: MTDDKDVLRDVWFGRIPTCFTLYQDEITEREAEPYYLLLPRVSYLTLVTDKVKKHFQKVMRQEDISEIWFEYEGTPLKWHYPIGLLFDLLASSSALPWNITVHFKSFPEKDLLHCPSKDAIEAHFMSCMKEADALKHKSQVINEMQKKDHKQLWMGLQNDRFDQFWAINRKLMEYPAEENGFRYIPFRIYQT
